Results deposited as PubChem BioAssay AID720505 (Drosophila RNAi Screening Center, 2013)
Assay: 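Knock-downs that reduce calcium influx once internal stores are emptied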 (primary screen). Cell system: Drosophila S2R+ cells. Reagents: long dsRNA against Drosophila genes. Treatment: thapsigargin (2 µM) in calcium-free buffer to empty internal stores, then 2 mM calcium added back. Measured: 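Fluo-4 signal in 384-well plates read on a FLIPR after thapsigargin (2 µM, calcium-free) store depletion and 2 mM calcium add-back; unnormalised mean endpoint per well; screen run twice, selected wells retested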. Direction: calcium signal and retest calcium signal: higher = more calcium entry after store depletion. Active means: 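Knock-downs counted as hits when calcium entry dropped relative to STIM1 positive and Rho1 negative controls present on each plate; roughly 1500 genes called, with reductions of differing size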. Meaning of the calls: active = called as lowering calcium entry; inactive = not called.
The deposit covers about 20,000 reagents; below is an unselected part of those that have a named target and a result. Of all reagents, about 2,100 (10%) were called active. 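Raw plate signals without normalisation; calls rest on control-based scores that were not deposited; replicate 2 separates called from uncalled poorly.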 Names joined by + are all predicted targets of the reagent. Reagent sequences are not shown. Not given: the amount of reagent, the time to read-out.

no.	target gene	amplicon	calcium signal, replicate 1	calcium signal, replicate 2	retest calcium signal, replicate 1	retest calcium signal, replicate 2	call
1	CG13615	DRSC14618	192	141			inactive
2	CG7914	DRSC20068	77.4	134			active
3	Ack-like (Activated Cdc42 kinase-like)	DRSC07500	152	124			inactive
4	Ack-like (Activated Cdc42 kinase-like)	DRSC21845	80.5	126			inactive
5	Hibch (3-hydroxyisobutyryl-CoA hydrolase)	DRSC15705	54.8	109			active
6	TwdlP (TweedleP)	DRSC14734	64.2	71.4			active
7	IntS4 (Integrator 4)	DRSC17810	114	94.3			inactive
8	gzl (godzilla E3 ubiquitin protein ligase)	DRSC12517	91.7	103			inactive
9	Acp53C14a (Accessory gland protein 53C14a)	DRSC07224	156	137			inactive
10	Npl4 (Nuclear protein localization 4)	DRSC15615	116	110			inactive
11	Npl4 (Nuclear protein localization 4)	DRSC15616	107	122			inactive
12	ord (orientation disruptor)	DRSC04706	88.3	156			inactive
13	mthl2 (methuselah-like 2)	DRSC10287	98.5	90.2			inactive
14	wor (worniu)	DRSC03637	143	99.4			inactive
15	Tbp (TATA binding protein)	DRSC04662	178	133			inactive
16	Tbp (TATA binding protein)	DRSC23111	129	146			inactive
17	ODA-Dnal1 (Outer dynein arm dynein axonemal light chain 1)	DRSC07270	105	166			inactive
18	Cdk12 (Cyclin-dependent kinase 12)	DRSC11836	108	112			inactive
19	Cdk12 (Cyclin-dependent kinase 12)	DRSC23323	139	170			inactive
20	CG32806	DRSC21699	158	78.6			inactive

Sorted by “calcium signal, replicate 2” (low to high): some entries from above.
target gene	amplicon	calcium signal, replicate 1	calcium signal, replicate 2	retest calcium signal, replicate 1	retest calcium signal, replicate 2	call
Hibch (3-hydroxyisobutyryl-CoA hydrolase)	DRSC15705	54.8	109			active
Ack-like (Activated Cdc42 kinase-like)	DRSC07500	152	124			inactive
Ack-like (Activated Cdc42 kinase-like)	DRSC21845	80.5	126			inactive
CG7914	DRSC20068	77.4	134			active
CG13615	DRSC14618	192	141			inactive

More entries:
no.	target gene	amplicon	calcium signal, replicate 1	calcium signal, replicate 2	retest calcium signal, replicate 1	retest calcium signal, replicate 2	call
21	trem (trade embargo)	DRSC15575	78	74.5			inactive
22	CG17996 + Tsen2	DRSC02650	98.9	110			inactive
23	Ssl (Suppressor of Stellate-like)	DRSC04657	179	204			inactive
24	lncRNA:CR31044 (long non-coding RNA::CR31044)	DRSC22451	121	157			inactive
25	CG17221	DRSC00487	97.4	78.9			inactive
26	CG40378 (retired record)	DRSC20958	123	13361			inactive
27	CG40378 (retired record)	DRSC22174	115	241			inactive
28	CG2218	DRSC15428	113	138			inactive
29	CG34144 (retired record)	DRSC18885					active
30	CG34144 (retired record)	DRSC19380	89.8	82.3			inactive
31	CG34144 (retired record)	DRSC19480	109	85.9			inactive
32	CG34144 (retired record)	DRSC23284	95.4	134			inactive
33	Als2 (Amyotrophic lateral sclerosis 2)	DRSC11806	136	103			inactive
34	CG13994	DRSC02326	152	107			inactive
35	CG1835	DRSC20560	65.8	179			active
36	CG9662	DRSC00723	166	108			inactive
37	Ccp84Ag	DRSC12592	171	157			inactive
38	Ccp84Ag	DRSC22085	91.3	204			inactive
39	Gr22f (Gustatory receptor 22f)	DRSC00076	83.6	136			inactive
40	E(spl)m4-BFM (Enhancer of split m4, Bearded family member)	DRSC16992	294	118			inactive
41	Est-6 (Esterase 6)	DRSC11162	89.9	97.8			inactive
42	GMF (Glia maturation factor)	DRSC01928	85.1	149			inactive
43	tacc (transforming acidic coiled-coil protein)	DRSC12388	56	51	114	66	active
44	Gad1 (Glutamic acid decarboxylase 1)	DRSC08661	69.1	87.3			active
45	aus (argus)	DRSC15157	216	291			inactive
46	Gclm (Glutamate-cysteine ligase modifier subunit)	DRSC15677	216	296			inactive
47	GILT2 (Gamma-interferon-inducible lysosomal thiol reductase 2)	DRSC14196	176	316			inactive
48	Taf12L (TBP-associated factor 30kD subunit alpha-2)	DRSC00467	208	81.5			inactive
49	zen (zerknullt)	DRSC12632	126	175			inactive
50	Pen (Pendulin)	DRSC03396	105	98.8			inactive
51	CG10081	DRSC05962	202	146			inactive
52	RpS14b (Ribosomal protein S14b)	DRSC18711	55.5	101			active
53	kumpel (kin of rumpel)	DRSC14883	240	148			inactive
54	kumpel (kin of rumpel)	DRSC16459	197	172			inactive
55	kumpel (kin of rumpel)	DRSC16460	259	150			inactive
56	kumpel (kin of rumpel)	DRSC16461	233	170			inactive
57	kumpel (kin of rumpel)	DRSC16462	247	116			inactive
58	kumpel (kin of rumpel)	DRSC16463	232	187			inactive
